Laboratory results from US20220168386A1 (NAVIGO PROTEINS, published 2022).
Residue numbers refer to the chain shown, from its start.

B1: 187096 with C-terminal Strep-tag (designed binder)
ubiquitin mutein: MQIFVYTRELKQITLEVEPSDTIENVKAKIQDKEGIPPDQQMLFWKGKQLEDGRTLSDYNIWWNPNLSLNLDLRAASAWSHPQFEK
notes: also called Affilin-187096
B2: 187064 with C-terminal Strep-tag (designed binder)
ubiquitin mutein: B1 ubiquitin mutein with R8K, E9Q
notes: also called Affilin-187064
B3: 187092 with C-terminal Strep-tag (designed binder)
ubiquitin mutein: B1 ubiquitin mutein with R8A
notes: also called Affilin-187092
B4: 187093 with C-terminal Strep-tag (designed binder)
ubiquitin mutein: B1 ubiquitin mutein with Y6W, L10F
notes: also called Affilin-187093
B5: 187131 with C-terminal Strep-tag (designed binder)
ubiquitin mutein: B1 ubiquitin mutein with E9A, D72G
notes: also called Affilin-187131
B6: 187134 with C-terminal Strep-tag (designed binder)
ubiquitin mutein: B1 ubiquitin mutein with E9V, E16A
notes: also called Affilin-187134
B7: 187154 with C-terminal Strep-tag (designed binder)
ubiquitin mutein: B1 ubiquitin mutein with E9A, E18G, Q31R, N70D
notes: also called Affilin-187154
B8: 187165 with C-terminal Strep-tag (designed binder)
ubiquitin mutein: B1 ubiquitin mutein with E9A, I23V, N70D
notes: also called Affilin-187165
B9: 187170 with C-terminal Strep-tag (designed binder)
ubiquitin mutein: B1 ubiquitin mutein with E9A, D72N
notes: also called Affilin-187170
B10: 187178 with C-terminal Strep-tag (designed binder)
ubiquitin mutein: B1 ubiquitin mutein with E9V, I36T, M42T, K46R
notes: also called Affilin-187178
B11: 187186 with C-terminal Strep-tag (designed binder)
ubiquitin mutein: B1 ubiquitin mutein with E9V, K29R
notes: also called Affilin-187186
B12: 187191 with C-terminal Strep-tag (designed binder)
ubiquitin mutein: B1 ubiquitin mutein with E9A, K48R
notes: also called Affilin-187191
B13: 187210 with C-terminal Strep-tag (designed binder)
ubiquitin mutein: B1 ubiquitin mutein with E9A, K33R
notes: also called Affilin-187210
B14: 187283 with C-terminal Strep-tag (designed binder)
ubiquitin mutein: B1 ubiquitin mutein with E9V, L71R
notes: also called Affilin-187283
B15: 187295 with C-terminal Strep-tag (designed binder)
ubiquitin mutein: B1 ubiquitin mutein with E9V, L73R
notes: also called Affilin-187295
B16: SEQ ID NO: 25 (Affilin-164667; motif KHNTW) (designed binder)
chain: MQIFVKTLTFEHPSFGKTITLEVEPSDTIENVKAKIQDKEGIPPDQQHLYWAGKQLEDGRTLSDYNIKHNTWLELMLFLRAA
B17: 161374 (designed binder)
ubiquitin mutein: B16 chain with F10P, E11Q, H12P, S14E, F15Y
notes: also called Affilin-161374
B18: 161717 (designed binder)
ubiquitin mutein: B16 chain with P13H
notes: also called Affilin-161717
B19: 161776 (designed binder)
ubiquitin mutein: B16 chain with P13K
notes: also called Affilin-161776
B20: 161843 (designed binder)
ubiquitin mutein: B16 chain with F10P, E11Q, H12P, S14E, F15W
notes: also called Affilin-161843
B21: 161912 (designed binder)
ubiquitin mutein: B16 chain with F10P, E11P, H12F, P13A, S14F, F15W
notes: also called Affilin-161912
B22: 162034 (designed binder)
ubiquitin mutein: B16 chain with F10P, E11Q, H12P, S14E
notes: also called Affilin-162034
B23: 162055 (designed binder)
ubiquitin mutein: B16 chain with P13N, A52V
notes: also called Affilin-162055
B24: 162102 (designed binder)
ubiquitin mutein: B16 chain with F10P, E11I, H12P, S14D, F15W
notes: also called Affilin-162102
B25: SEQ ID NO: 25 (Affilin-164667) with C-terminal Strep-tag (designed binder)
chain: MQIFVKTLTFEHPSFGKTITLEVEPSDTIENVKAKIQDKEGIPPDQQHLYWAGKQLEDGRTLSDYNIKHNTWLELMLFLRAASAWSHPQFEK
B26: 162462 (designed binder)
bis-ubiquitin mutein: MQIFVRTPTGKTITLEVEPSDTIENVKAKIQDKEGIPPDQQRLIWAGKQLEDGRTLSDYNIGFAHRLHLVLRLRAAMQIFVMTQTGKTITLEVEPSDTIENVKAKIQDKEGIPPDQQRLIWAGKQLEDGRTLSDYNIWTTTFLHLVLRLRAA
notes: also called Affilin-162462
B27: 161438 (designed binder)
bis-ubiquitin mutein: B26 bis-ubiquitin mutein with P8H, G62S, Q84R
notes: also called Affilin-161438
B28: 161644 (designed binder)
bis-ubiquitin mutein: B26 bis-ubiquitin mutein with G62S, F63Y
notes: also called Affilin-161644
B29: 162633 (designed binder)
bis-ubiquitin mutein: B26 bis-ubiquitin mutein with P8W, G62W, F63W, H65D
notes: also called Affilin-162633
B30: 163970 (designed binder)
bis-ubiquitin mutein: B26 bis-ubiquitin mutein with R6W, R66L
notes: also called Affilin-163970
B31: 164052 (designed binder)
bis-ubiquitin mutein: B26 bis-ubiquitin mutein with P8G
notes: also called Affilin-164052
B32: 164058 (designed binder)
bis-ubiquitin mutein: B26 bis-ubiquitin mutein with P8I
notes: also called Affilin-164058
B33: 162462 with C-terminal Strep-tag (designed binder)
bis-ubiquitin mutein: MQIFVRTPTGKTITLEVEPSDTIENVKAKIQDKEGIPPDQQRLIWAGKQLEDGRTLSDYNIGFAHRLHLVLRLRAAMQIFVMTQTGKTITLEVEPSDTIENVKAKIQDKEGIPPDQQRLIWAGKQLEDGRTLSDYNIWTTTFLHLVLRLRAASAWSHPQFEK
notes: also called Affilin-162462
B34: 161438 with C-terminal Strep-tag (designed binder)
bis-ubiquitin mutein: B33 bis-ubiquitin mutein with P8H, G62S, Q84R
notes: also called Affilin-161438
B35: 161644 with C-terminal Strep-tag (designed binder)
bis-ubiquitin mutein: B33 bis-ubiquitin mutein with G62S, F63Y
notes: also called Affilin-161644
B36: 162633 with C-terminal Strep-tag (designed binder)
bis-ubiquitin mutein: B33 bis-ubiquitin mutein with P8W, G62W, F63W, H65D
notes: also called Affilin-162633
B37: 163970 with C-terminal Strep-tag (designed binder)
bis-ubiquitin mutein: B33 bis-ubiquitin mutein with R6W, R66L
notes: also called Affilin-163970
B38: 164052 with C-terminal Strep-tag (designed binder)
bis-ubiquitin mutein: B33 bis-ubiquitin mutein with P8G
notes: also called Affilin-164052
B39: 164058 with C-terminal Strep-tag (designed binder)
bis-ubiquitin mutein: B33 bis-ubiquitin mutein with P8I
notes: also called Affilin-164058
B40: 164668 with C-terminal Strep-tag (designed binder)
bis-ubiquitin mutein: B33 bis-ubiquitin mutein with P8M
notes: the form without a stated tag is m27; also called Affilin-164668
B41: 185071 with C-terminal Strep-tag (designed binder)
bis-ubiquitin mutein: B33 bis-ubiquitin mutein with P8M, G62W, F63G, A64G, M82L, T140P, T141S, F142I
notes: also called Affilin-185071
B42: 192444 with C-terminal Strep-tag (designed binder)
bis-ubiquitin mutein: B33 bis-ubiquitin mutein with P8L, K33T, M82L, K124T, T140P, T141S, F142I
notes: also called Affilin-192444

Key:
[1] = target: T1, PSMA (prostate specific membrane antigen) expressed on cells (human, UniProt Q04609 1-750); experiment: flow cytometry on PSMA-expressing cells (LNCaP, HEK293-PSMA), paragraph 135
T1 construct: whole, on cells; also called cell surface-exposed PSMA; PSMA on LNCaP-cells
Experimental: Flow cytometry was used to analyze the binding of PSMA binding proteins to cell surface-exposed PSMA. PSMA overexpressing human prostate carcinoma cell line LNCaP, PSMA overexpressing transfected HEK293-PSMA-cells, PSMA non-expressing PC3-cells and empty vector control HEK293-pEntry-cells were used. Cells were trypsinized and resuspended in medium containing FCS, washed and stained in pre-cooled FACS blocking buffer. A cell concentration of 1×10⁶ cells/ml was prepared for cell staining and 100 μl were respectively filled into the wells of a 96 well plate (Greiner) in triplicate for each cell line. Different concentrations, for example 50 nM of PSMA binding proteins or 0.5 μg/ml monoclonal anti-human-PSMA antibody (clone LNI-17; Biolegend; 342502) as positive control were added to PSMA overexpressing and control cells in several experiments. PSMA-binding proteins included C-terminal Strep-tags (see e.g. SEQ ID NO: 71) for purification and detection purposes. After 45 min the supernatants were removed and 100 μl/well rabbit anti-Strep-Tag antibody (obtained from GenScript; A00626), 1:300 diluted in FACS blocking buffer were added. Anti-PSMA antibody was detected with anti-mouse-IgG-Alexa 488 (Invitrogen; A-10680) with a dilution of 1:1000 in the positive control wells. After removal of the anti-Strep-Tag antibody from the other wells goat anti-rabbit IgG Alexa Fluor 488 antibody (obtained from Invitrogen; A11008) was applied in a 1:1000 dilution. Flow cytometry measurement was conducted on the Guava easyCyte 5HT device from Merck-Millipore at excitation wavelength 488 nm and emission wavelength 525/30 nm. […] Positive binding on PSMA-expressing cells was also observed for anti-PSMA-antibody.

[2] = target: T2, His-Fc-PSMA (extracellular domain of human PSMA, residues 45-750, fused with the Fc region of human IgG1 and … (human, UniProt Q04609 45-750)); experiment: SPR (Biacore), PSMA-Fc immobilized; unit not printed in this figure, M as in FIGURE 1
T2 construct: range 45-750; Made in Expi293F cells; Order of parts follows the printed name His-Fc-PSMA; also called PSMA-Fc; hPSMA-Fc; not shown: N-terminal His-tag; Fc region of human IgG1
Description: A CM5 sensor chip (GE Healthcare) was equilibrated with SPR running buffer. Surface-exposed carboxylic groups were activated by passing a mixture of EDC and NHS to yield reactive ester groups. 700-1500 RU PSMA-Fc (on-ligand) were immobilized on a flow cell, IgG-Fc (off-ligand) was immobilized on another flow cell at a ratio of 1:3 (hlgG-Fc:Target) to the target. Injection of ethanolamine after ligand immobilization was used to block unreacted NHS groups. Upon ligand binding, protein analyte was accumulated on the surface increasing the refractive index. This change in the refractive index was measured in real time and plotted as response or resonance units (RU) versus time. The analytes were applied to the chip in serial dilutions with a flow rate of 30 μl/min. The association was performed for 120 seconds and the dissociation for 360 seconds. After each run, the chip surface was regenerated with 30 μl regeneration buffer and equilibrated with running buffer. A dilution series served as positive control, whereas a dilution series of unmodified ubiquitin represents the negative control. The control samples were applied to the matrix with a flow rate of 30 μl/min, while they associate for 60 seconds and dissociate for 120 seconds. Regeneration and re-equilibration were performed as previously mentioned. Binding studies were carried out by the use of the Biacore 3000 (GE Healthcare); data evaluation was operated via the BIAevaluation 3.0 software, provided by the manufacturer, by the use of the Langmuir 1:1 model (RI=0). After fitting the data with a 1:1 langmuir model, for example, KD values were calculated and shown in FIG. 1, FIG. 2, FIG. 3, and Table 2. Evaluated dissociation constants (KD) were standardized against off-target and indicated.

Binder | binding result [1] | Kd [2]
B1 | binds | 
B2 | binds | 
B3 | binds | 
B4 | binds | 
B5 | binds | 
B6 | binds | 
B7 | binds | 
B8 | binds | 
B9 | binds | 
B10 | binds | 
B11 | binds | 
B12 | binds | 
B13 | binds | 
B14 | binds | 
B15 | binds | 
B16 |  | 7.29 nM
B17 |  | 43.5 nM
B18 |  | 40 nM
B19 |  | 41.1 nM
B20 |  | 51.7 nM
B21 |  | 77.8 nM

Binder | binding result [1] | Kd [2]
B22 |  | 87.7 nM
B23 |  | 39.8 nM
B24 |  | 63.6 nM
B25 | binds | 
B26 |  | 13.5 nM
B27 |  | 23.3 nM
B28 |  | 30.1 nM
B29 |  | 13.5 nM
B30 |  | 11 nM
B31 |  | 16.7 nM
B32 |  | 24.3 nM
B33 | binds | 
B34 | binds | 
B35 | binds | 
B36 | binds | 
B37 | binds | 
B38 | binds | 
B39 | binds | 
B40 | binds | 
B41 | binds | 
B42 | binds | 
